According to paper PMC6801465:

Biological target: LDL-R (low-density lipoprotein receptor), negative control (UniProt P01130)
Experiment: ELONA
Details: Binding buffer: serum-free DMEM + 100 ug/mL tRNA, aptamers denatured 95 C 5 min, snap cooled on ice 10 min, ELONA 1 h (temperature not given), label: 5'-biotin (ELONA); for binding result: 100 nM aptamer

UGCUUUGAUGUCGAUUCGACAGGAGGC [CL-4RNV615]
binding result (all 2'-OMe, synthetic backbone): no binding

TGCTTTGATGTCGATTCGACAGGAGGC [CL-4RNV618]
binding result (none (all DNA), folded or branched DNA): no binding

GCCUUAGUAACGUGCUUUGAUGUCGAUUCGACAGGAGGC [CL-4]
Kd (2'-F on all C and U, A and G are RNA, synthetic backbone): > 1 µM

UGCUUUGAUGUCGAUUCGACAGGAGGC [CL-4RNV616]
Kd (2'-OMe on U, G, C, all A (positions 8, 14, 19, 21, 24) are DNA, 5'-FAM (cells), synthetic backbone): > 1 µM

UGCUUUGAUGUCGAUUCGACAGGAGGC [CL-4RNV617]
binding result (none (all RNA)): no binding

The exact form of at least one protein or probe is not confirmed. No signal at the amounts used counts as a negative. At least one verdict rests on a figure or table, not on a statement of the authors.
